Results from one PubChem assay

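Malaria parasite (P. falciparum) lines kept in red blood cells; parasite DNA is measured by SYBR Green fluorescence after lysis, 72 h after compound addition.
Each compound was titrated across a series from about 0.000037 to 29 µM.
The number is the fitted AC50, the concentration giving a half-maximal change in signal; a lower value means higher potency, whether the curve shows a decrease or an increase.
Calls follow the curve class and fit quality: every row here is inconclusive, covering signal-raising curves and weak, poorly fitted, partial or highest-dose-only inhibition curves.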

Values are in µM.
All entries here are filed as inconclusive.
These entries are mostly ones the record files as inconclusive; other results of the assay are not listed here.
A potency from a partial, single-point or poor curve is only a rough figure.

SMILES	setting	fitted potency (µM)	remark
CCCC(CCC)C(=O)OC1C[C@H]2CC[C@@H](C1)[N+]2(C)C (stereo partly drawn)	P94_40	17.78	inhibitor, single point
CCCC(CCC)C(=O)OC1C[C@H]2CC[C@@H](C1)[N+]2(C)C (stereo partly drawn)	CP191	12.59	inhibitor, single point
CCCC(CCC)C(=O)OC1C[C@H]2CC[C@@H](C1)[N+]2(C)C (stereo partly drawn)	CP262	19.01	inhibitor, single point
CCCC(CCC)C(=O)OC1C[C@H]2CC[C@@H](C1)[N+]2(C)C (stereo partly drawn)	PC26	16.94	inhibitor, single point
CCCC(CCC)C(=O)OC1C[C@H]2CC[C@@H](C1)[N+]2(C)C (stereo partly drawn)	CP217	14.13	inhibitor, single point
CCCC(CCC)C(=O)OC1C[C@H]2CC[C@@H](C1)[N+]2(C)C (stereo partly drawn)	HB3	10	inhibitor, single point
CCCC(CCC)C(=O)OC1C[C@H]2CC[C@@H](C1)[N+]2(C)C (stereo partly drawn)	ATS189	15.85	inhibitor, single point
CCCC(CCC)C(=O)OC1C[C@H]2CC[C@@H](C1)[N+]2(C)C (stereo partly drawn)	CP247	8.912	inhibitor, partial curve, poor fit
COc1ccc(O)cc1	CP247	10	inhibitor, single point
CCC(=O)O[C@@]1(C(=O)SCF)[C@@H](C)C[C@H]2[C@@H]3C[C@@H](F)C4=CC(=O)C=C[C@@]4(C)[C@]3(F)[C@@H](O)C[C@]21C	CP335	8.087	inhibitor, single point
CCC(=O)O[C@@]1(C(=O)SCF)[C@@H](C)C[C@H]2[C@@H]3C[C@@H](F)C4=CC(=O)C=C[C@@]4(C)[C@]3(F)[C@@H](O)C[C@]21C	ATS189	10	inhibitor, single point
CCC(=O)O[C@@]1(C(=O)SCF)[C@@H](C)C[C@H]2[C@@H]3C[C@@H](F)C4=CC(=O)C=C[C@@]4(C)[C@]3(F)[C@@H](O)C[C@]21C	DIV17	5.726	inhibitor, single point
CCC(=O)O[C@@]1(C(=O)SCF)[C@@H](C)C[C@H]2[C@@H]3C[C@@H](F)C4=CC(=O)C=C[C@@]4(C)[C@]3(F)[C@@H](O)C[C@]21C	PC49	3.981	inhibitor, single point
CCC(=O)O[C@@]1(C(=O)SCF)[C@@H](C)C[C@H]2[C@@H]3C[C@@H](F)C4=CC(=O)C=C[C@@]4(C)[C@]3(F)[C@@H](O)C[C@]21C	CP269	5.726	inhibitor, single point
CCC(=O)O[C@@]1(C(=O)SCF)[C@@H](C)C[C@H]2[C@@H]3C[C@@H](F)C4=CC(=O)C=C[C@@]4(C)[C@]3(F)[C@@H](O)C[C@]21C	CP191	10	inhibitor, single point
CCC(=O)O[C@@]1(C(=O)SCF)[C@@H](C)C[C@H]2[C@@H]3C[C@@H](F)C4=CC(=O)C=C[C@@]4(C)[C@]3(F)[C@@H](O)C[C@]21C	DIV30	2.869	inhibitor, partial curve, poor fit
CCC(=O)O[C@@]1(C(=O)SCF)[C@@H](C)C[C@H]2[C@@H]3C[C@@H](F)C4=CC(=O)C=C[C@@]4(C)[C@]3(F)[C@@H](O)C[C@]21C	CP217	3.548	inhibitor, single point
CCC(=O)O[C@@]1(C(=O)SCF)[C@@H](C)C[C@H]2[C@@H]3C[C@@H](F)C4=CC(=O)C=C[C@@]4(C)[C@]3(F)[C@@H](O)C[C@]21C	CP265	10	inhibitor, single point
CCC(=O)O[C@@]1(C(=O)SCF)[C@@H](C)C[C@H]2[C@@H]3C[C@@H](F)C4=CC(=O)C=C[C@@]4(C)[C@]3(F)[C@@H](O)C[C@]21C	DIV14	5.726	inhibitor, single point
CCC(=O)O[C@@]1(C(=O)SCF)[C@@H](C)C[C@H]2[C@@H]3C[C@@H](F)C4=CC(=O)C=C[C@@]4(C)[C@]3(F)[C@@H](O)C[C@]21C	CP237	10	inhibitor, single point
CCC(=O)O[C@@]1(C(=O)SCF)[C@@H](C)C[C@H]2[C@@H]3C[C@@H](F)C4=CC(=O)C=C[C@@]4(C)[C@]3(F)[C@@H](O)C[C@]21C	ECU	7.08	inhibitor, single point
CCC(=O)O[C@@]1(C(=O)SCF)[C@@H](C)C[C@H]2[C@@H]3C[C@@H](F)C4=CC(=O)C=C[C@@]4(C)[C@]3(F)[C@@H](O)C[C@]21C	AS120	7.943	inhibitor, single point
CCC(=O)O[C@@]1(C(=O)SCF)[C@@H](C)C[C@H]2[C@@H]3C[C@@H](F)C4=CC(=O)C=C[C@@]4(C)[C@]3(F)[C@@H](O)C[C@]21C	CP260	7.08	inhibitor, single point
CCC(=O)O[C@@]1(C(=O)SCF)[C@@H](C)C[C@H]2[C@@H]3C[C@@H](F)C4=CC(=O)C=C[C@@]4(C)[C@]3(F)[C@@H](O)C[C@]21C	CP252	10	inhibitor, single point
CCC(=O)O[C@@]1(C(=O)SCF)[C@@H](C)C[C@H]2[C@@H]3C[C@@H](F)C4=CC(=O)C=C[C@@]4(C)[C@]3(F)[C@@H](O)C[C@]21C	ATS95	3.981	inhibitor, single point
CCC(=O)O[C@@]1(C(=O)SCF)[C@@H](C)C[C@H]2[C@@H]3C[C@@H](F)C4=CC(=O)C=C[C@@]4(C)[C@]3(F)[C@@H](O)C[C@]21C	HB3	7.08	inhibitor, single point
CCC(=O)O[C@@]1(C(=O)SCF)[C@@H](C)C[C@H]2[C@@H]3C[C@@H](F)C4=CC(=O)C=C[C@@]4(C)[C@]3(F)[C@@H](O)C[C@]21C	GB4	5.726	inhibitor, single point
CCC(=O)O[C@@]1(C(=O)SCF)[C@@H](C)C[C@H]2[C@@H]3C[C@@H](F)C4=CC(=O)C=C[C@@]4(C)[C@]3(F)[C@@H](O)C[C@]21C	P94_40	10	inhibitor, single point
CCC(=O)O[C@@]1(C(=O)SCF)[C@@H](C)C[C@H]2[C@@H]3C[C@@H](F)C4=CC(=O)C=C[C@@]4(C)[C@]3(F)[C@@H](O)C[C@]21C	DFO2036	10	inhibitor, single point
CCC(=O)O[C@@]1(C(=O)SCF)[C@@H](C)C[C@H]2[C@@H]3C[C@@H](F)C4=CC(=O)C=C[C@@]4(C)[C@]3(F)[C@@H](O)C[C@]21C	AA1029	5.012	inhibitor, single point
CCC(=O)O[C@@]1(C(=O)SCF)[C@@H](C)C[C@H]2[C@@H]3C[C@@H](F)C4=CC(=O)C=C[C@@]4(C)[C@]3(F)[C@@H](O)C[C@]21C	PAD	7.943	inhibitor, single point
CCC(=O)O[C@@]1(C(=O)SCF)[C@@H](C)C[C@H]2[C@@H]3C[C@@H](F)C4=CC(=O)C=C[C@@]4(C)[C@]3(F)[C@@H](O)C[C@]21C	TAB113	7.08	inhibitor, single point

Repeated from the top, 2 entries:

Result for CCCC(CCC)C(=O)OC1C[C@H]2CC[C@@H](C1)[N+]2(C)C (stereo partly drawn) [P94_40] was fitted potency 17.78 µM (inhibitor, single point).
Result for CCCC(CCC)C(=O)OC1C[C@H]2CC[C@@H](C1)[N+]2(C)C (stereo partly drawn) [CP191] was fitted potency 12.59 µM (inhibitor, single point).

Source: PubChem BioAssay AID504749 (NCATS, 2011).